Measurements taken from paper PMC3807682.
Results are given in words; binding and its absence hold for the method and conditions named. In cells and extracts the contact can be indirect. Some results given as binding are weak or reduced against the parent protein; the word gives no strength.

What was measured:
[1] = molecular target: T1, MEF2 (endogenous Drosophila MEF2) (Drosophila (endogenous in whole adult flies)) (UniProt P40791); experiment: co-IP; data not shown: endogenous MEF2 precipitated from whole-fly lysates of flies infected with a mixture of M. luteus and E. coli, TBP detected
T1 sequence: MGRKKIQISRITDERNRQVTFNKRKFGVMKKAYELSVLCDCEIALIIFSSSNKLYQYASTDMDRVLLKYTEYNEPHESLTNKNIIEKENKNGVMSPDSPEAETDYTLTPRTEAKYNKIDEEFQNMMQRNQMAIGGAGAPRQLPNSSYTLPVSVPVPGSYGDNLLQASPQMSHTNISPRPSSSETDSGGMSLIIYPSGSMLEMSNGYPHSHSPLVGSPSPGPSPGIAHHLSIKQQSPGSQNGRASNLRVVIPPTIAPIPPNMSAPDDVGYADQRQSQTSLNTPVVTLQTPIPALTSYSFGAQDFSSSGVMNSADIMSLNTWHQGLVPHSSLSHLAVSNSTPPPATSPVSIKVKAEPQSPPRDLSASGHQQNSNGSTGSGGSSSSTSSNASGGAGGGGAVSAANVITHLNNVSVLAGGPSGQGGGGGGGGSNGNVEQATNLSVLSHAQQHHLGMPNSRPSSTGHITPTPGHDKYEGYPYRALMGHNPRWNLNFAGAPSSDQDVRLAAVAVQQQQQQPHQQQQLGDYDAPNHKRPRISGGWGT

[2] = molecular target: T1, MEF2 (endogenous Drosophila MEF2) (Drosophila (endogenous in whole adult flies)); experiment: co-IP; endogenous MEF2 precipitated with rabbit anti-MEF2 from whole-fly lysates (25 mM HEPES pH 7.6, 100 mM KCl, 1% NP-40), blot for TBP; flies 3 hr after E. cloacae infection; wild type and Dif; Rel double mutants

B1: TATA binding protein (TBP), endogenous Drosophila (protein, UniProt P20227 1-353)
chain: MDQMLSPNFSIPSIGTPLHQMEADQQIVANPVYHPPAVSQPDSLMPAPGSSSVQHQQQQQQSDASGGSGLFGHEPSLPLAHKQMQSYQPSASYQQQQQQQQLQSQAPGGGGSTPQSMMQPQTPQSMMAHMMPMSERSVGGSGAGGGGDALSNIHQTMGPSTPMTPATPGSADPGIVPQLQNIVSTVNLCCKLDLKKIALHARNAEYNPKRFAAVIMRIREPRTTALIFSSGKMVCTGAKSEDDSRLAARKYARIIQKLGFPAKFLDFKIQNMVGSCDVKFPIRLEGLVLTHCNFSSYEPELFPGLIYRMVRPRIVLLIFVSGKVVLTGAKVRQEIYDAFDKIFPILKKFKKQS
In the case of B1, the binding [1] is reported as “binds” and the binding [2] is reported as “binds”.
